Structures can show the parent of a compound that is named as a salt. Some of the results follow. The calls rarely recur for the same compound in another form.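 Kinases, fused to nanoluciferase, were expressed in K562 cells; luminescence was measured every 4 h from 2 to 18 h as percent of control (DMSO = 100%, positive control = 0%). A time point is decreased if signal falls significantly (2 sigma). Hits were called by the authors by a rule that is not shown; the count of time points alone does not decide it.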
Experiments:
Assay in all cases: kinase-Nluc reporter destabilization hit call (1 = scored as downregulated) (binary); higher = compound decreases kinase abundance
Conditions in all cases: K562; 2-18 h
[1] = biological target: MAPK1 (UniProt P28482)
[2] = biological target: MAPK4 (UniProt P31152)
[3] = biological target: MAPKAPK2 (UniProt P49137)
[4] = biological target: MKNK1 (UniProt Q9BUB5)
[5] = biological target: NTRK2 (UniProt Q16620)
[6] = biological target: NTRK3 (UniProt Q16288)
[7] = biological target: PAK4 (UniProt O96013)
[8] = biological target: PBK (UniProt Q96KB5)
[9] = biological target: PDGFRB (UniProt P09619)
[10] = biological target: PDK1 (UniProt Q15118)
[11] = biological target: PDPK1 (UniProt O15530)
[12] = biological target: PIK4CA (UniProt P42356)
[13] = biological target: PIK4CB (UniProt Q9UBF8)
[14] = biological target: PLK1 (UniProt P53350)
[15] = biological target: PRKAA1 (UniProt Q13131)
[16] = biological target: PRKCA (UniProt P17252)
[17] = biological target: PTK2 (UniProt Q05397)
[18] = biological target: PTK2B (UniProt Q14289)
[19] = biological target: RAF1 (UniProt P04049)
[20] = biological target: RAF1_S257L (clone: RAF1_mut) (UniProt P04049)

Protein sequences, listed by entry. Tags and fused reporters are not part of them. Lines headed by an entry give the natural chain unless they say otherwise; changes in a name come on top.
UniProt P49137, whole entry, looked up: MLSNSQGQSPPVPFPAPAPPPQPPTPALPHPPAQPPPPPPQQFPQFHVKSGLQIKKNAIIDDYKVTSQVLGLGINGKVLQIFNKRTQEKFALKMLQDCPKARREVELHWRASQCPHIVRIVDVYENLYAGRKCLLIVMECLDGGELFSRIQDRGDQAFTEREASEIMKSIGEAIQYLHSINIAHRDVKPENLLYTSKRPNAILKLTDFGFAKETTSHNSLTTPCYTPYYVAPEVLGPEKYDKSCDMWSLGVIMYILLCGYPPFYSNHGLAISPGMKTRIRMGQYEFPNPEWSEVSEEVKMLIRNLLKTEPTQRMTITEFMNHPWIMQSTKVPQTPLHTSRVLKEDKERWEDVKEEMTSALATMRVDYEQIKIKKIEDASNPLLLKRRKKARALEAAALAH
UniProt Q9BUB5: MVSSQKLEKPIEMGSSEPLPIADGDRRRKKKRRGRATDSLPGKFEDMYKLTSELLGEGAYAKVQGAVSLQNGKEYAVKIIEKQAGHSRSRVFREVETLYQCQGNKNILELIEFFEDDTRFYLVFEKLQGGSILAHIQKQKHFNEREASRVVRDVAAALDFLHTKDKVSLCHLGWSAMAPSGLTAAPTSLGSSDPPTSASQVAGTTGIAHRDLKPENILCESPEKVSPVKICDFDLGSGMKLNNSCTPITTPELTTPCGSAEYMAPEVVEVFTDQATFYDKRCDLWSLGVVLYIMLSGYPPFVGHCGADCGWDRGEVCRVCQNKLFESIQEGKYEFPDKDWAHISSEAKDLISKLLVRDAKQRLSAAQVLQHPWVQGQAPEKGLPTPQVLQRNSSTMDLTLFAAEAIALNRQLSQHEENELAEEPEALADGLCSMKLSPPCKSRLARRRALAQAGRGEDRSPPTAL
UniProt O96013: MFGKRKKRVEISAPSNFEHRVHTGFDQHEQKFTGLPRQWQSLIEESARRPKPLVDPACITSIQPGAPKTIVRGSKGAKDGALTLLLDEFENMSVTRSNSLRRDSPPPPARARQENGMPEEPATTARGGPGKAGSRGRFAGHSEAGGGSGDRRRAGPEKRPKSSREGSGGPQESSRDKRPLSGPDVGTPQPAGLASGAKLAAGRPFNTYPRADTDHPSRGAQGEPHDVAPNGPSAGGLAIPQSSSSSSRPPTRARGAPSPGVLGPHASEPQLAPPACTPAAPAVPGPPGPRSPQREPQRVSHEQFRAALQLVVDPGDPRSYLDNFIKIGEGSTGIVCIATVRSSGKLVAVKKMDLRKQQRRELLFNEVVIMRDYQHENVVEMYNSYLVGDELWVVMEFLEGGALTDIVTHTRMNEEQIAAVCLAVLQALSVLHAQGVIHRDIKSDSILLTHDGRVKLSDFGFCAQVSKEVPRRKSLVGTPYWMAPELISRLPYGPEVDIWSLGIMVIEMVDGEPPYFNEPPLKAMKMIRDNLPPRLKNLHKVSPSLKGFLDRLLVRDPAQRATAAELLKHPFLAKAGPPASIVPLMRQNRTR
UniProt Q96KB5: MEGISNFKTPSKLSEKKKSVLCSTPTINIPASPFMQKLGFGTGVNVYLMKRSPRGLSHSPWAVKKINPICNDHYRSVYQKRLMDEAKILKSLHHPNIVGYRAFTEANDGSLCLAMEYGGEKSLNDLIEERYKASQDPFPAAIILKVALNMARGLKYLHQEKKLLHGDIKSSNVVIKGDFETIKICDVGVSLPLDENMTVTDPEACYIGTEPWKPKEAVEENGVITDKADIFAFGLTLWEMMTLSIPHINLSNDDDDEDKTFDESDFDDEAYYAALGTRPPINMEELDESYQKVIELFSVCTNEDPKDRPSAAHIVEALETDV
UniProt P09619, whole entry: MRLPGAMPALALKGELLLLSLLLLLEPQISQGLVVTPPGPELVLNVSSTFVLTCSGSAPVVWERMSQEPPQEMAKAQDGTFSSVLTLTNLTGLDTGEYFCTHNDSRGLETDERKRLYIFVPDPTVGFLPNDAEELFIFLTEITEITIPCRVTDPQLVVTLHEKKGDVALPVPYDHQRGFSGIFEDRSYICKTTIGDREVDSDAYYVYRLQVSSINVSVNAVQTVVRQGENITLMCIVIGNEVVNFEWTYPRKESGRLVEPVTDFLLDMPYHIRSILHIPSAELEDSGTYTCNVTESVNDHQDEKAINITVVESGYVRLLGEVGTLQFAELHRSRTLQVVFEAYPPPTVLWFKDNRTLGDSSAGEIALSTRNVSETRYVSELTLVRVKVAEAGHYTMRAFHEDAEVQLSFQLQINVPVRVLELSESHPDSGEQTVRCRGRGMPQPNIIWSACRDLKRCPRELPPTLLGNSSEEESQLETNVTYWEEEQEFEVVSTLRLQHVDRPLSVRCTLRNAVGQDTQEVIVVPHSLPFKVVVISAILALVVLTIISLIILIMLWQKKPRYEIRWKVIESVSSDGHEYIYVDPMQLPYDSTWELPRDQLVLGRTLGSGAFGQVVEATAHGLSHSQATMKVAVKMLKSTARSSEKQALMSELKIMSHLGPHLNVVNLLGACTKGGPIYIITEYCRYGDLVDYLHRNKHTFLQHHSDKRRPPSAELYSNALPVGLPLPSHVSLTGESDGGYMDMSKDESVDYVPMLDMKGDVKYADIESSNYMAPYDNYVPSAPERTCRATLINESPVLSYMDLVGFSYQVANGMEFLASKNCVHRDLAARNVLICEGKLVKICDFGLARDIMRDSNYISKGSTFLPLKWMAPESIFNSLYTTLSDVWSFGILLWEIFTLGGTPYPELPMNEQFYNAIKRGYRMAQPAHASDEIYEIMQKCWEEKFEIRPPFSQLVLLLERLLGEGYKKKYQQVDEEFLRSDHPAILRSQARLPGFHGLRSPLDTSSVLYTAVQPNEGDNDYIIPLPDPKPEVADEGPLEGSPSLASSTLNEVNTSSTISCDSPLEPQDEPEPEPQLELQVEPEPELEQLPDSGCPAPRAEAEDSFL
UniProt P42356, whole entry, looked up: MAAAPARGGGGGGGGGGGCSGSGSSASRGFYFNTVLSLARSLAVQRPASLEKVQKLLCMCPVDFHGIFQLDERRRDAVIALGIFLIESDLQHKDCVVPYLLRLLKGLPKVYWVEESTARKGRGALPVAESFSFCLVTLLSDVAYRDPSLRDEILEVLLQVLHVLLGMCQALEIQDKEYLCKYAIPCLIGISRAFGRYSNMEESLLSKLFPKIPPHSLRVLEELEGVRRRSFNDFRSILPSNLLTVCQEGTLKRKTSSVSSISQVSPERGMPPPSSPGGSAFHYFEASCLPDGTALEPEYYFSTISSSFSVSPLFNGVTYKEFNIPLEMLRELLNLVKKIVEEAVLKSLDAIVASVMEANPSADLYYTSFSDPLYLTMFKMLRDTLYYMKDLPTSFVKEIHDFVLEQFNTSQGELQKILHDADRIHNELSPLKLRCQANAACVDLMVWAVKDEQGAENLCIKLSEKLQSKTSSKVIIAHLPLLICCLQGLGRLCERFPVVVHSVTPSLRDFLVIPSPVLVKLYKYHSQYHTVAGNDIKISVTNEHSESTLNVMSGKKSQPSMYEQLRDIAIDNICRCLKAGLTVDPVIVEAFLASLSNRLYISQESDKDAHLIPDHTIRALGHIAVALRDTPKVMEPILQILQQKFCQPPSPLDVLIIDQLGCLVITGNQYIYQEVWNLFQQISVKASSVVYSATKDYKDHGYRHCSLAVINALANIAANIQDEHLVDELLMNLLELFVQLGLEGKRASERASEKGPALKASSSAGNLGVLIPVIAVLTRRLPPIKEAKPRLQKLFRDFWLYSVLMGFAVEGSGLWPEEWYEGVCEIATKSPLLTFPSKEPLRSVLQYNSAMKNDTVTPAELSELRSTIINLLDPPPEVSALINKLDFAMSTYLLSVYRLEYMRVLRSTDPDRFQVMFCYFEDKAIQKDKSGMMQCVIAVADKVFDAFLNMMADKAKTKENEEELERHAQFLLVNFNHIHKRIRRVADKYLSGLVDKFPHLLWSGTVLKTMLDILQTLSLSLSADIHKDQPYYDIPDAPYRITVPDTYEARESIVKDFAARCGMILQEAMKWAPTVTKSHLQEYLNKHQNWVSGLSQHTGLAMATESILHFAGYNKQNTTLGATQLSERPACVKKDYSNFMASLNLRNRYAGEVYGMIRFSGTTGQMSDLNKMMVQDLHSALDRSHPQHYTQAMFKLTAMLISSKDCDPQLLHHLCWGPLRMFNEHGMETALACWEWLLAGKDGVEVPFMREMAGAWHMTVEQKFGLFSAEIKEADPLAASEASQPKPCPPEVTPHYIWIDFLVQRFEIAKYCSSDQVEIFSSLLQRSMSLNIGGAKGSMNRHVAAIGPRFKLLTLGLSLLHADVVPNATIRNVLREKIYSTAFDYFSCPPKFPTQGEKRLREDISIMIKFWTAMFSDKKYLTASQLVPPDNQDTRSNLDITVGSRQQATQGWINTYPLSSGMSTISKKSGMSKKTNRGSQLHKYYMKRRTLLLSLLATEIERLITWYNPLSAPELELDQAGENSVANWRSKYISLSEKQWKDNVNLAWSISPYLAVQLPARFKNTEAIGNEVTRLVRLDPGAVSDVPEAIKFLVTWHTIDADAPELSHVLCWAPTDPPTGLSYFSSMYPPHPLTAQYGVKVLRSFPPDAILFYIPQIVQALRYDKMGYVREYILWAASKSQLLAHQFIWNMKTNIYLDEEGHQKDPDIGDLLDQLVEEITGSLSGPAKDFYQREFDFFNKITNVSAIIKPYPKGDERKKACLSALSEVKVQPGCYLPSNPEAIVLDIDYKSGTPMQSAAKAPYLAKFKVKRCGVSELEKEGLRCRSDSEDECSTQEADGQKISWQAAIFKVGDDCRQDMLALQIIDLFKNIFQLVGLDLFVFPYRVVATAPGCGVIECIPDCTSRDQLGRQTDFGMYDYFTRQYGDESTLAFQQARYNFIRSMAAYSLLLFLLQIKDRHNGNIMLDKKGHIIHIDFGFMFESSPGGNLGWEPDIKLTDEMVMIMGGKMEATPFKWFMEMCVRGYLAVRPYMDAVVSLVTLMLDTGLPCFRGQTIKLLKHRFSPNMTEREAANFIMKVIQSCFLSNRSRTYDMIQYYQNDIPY
UniProt Q13131: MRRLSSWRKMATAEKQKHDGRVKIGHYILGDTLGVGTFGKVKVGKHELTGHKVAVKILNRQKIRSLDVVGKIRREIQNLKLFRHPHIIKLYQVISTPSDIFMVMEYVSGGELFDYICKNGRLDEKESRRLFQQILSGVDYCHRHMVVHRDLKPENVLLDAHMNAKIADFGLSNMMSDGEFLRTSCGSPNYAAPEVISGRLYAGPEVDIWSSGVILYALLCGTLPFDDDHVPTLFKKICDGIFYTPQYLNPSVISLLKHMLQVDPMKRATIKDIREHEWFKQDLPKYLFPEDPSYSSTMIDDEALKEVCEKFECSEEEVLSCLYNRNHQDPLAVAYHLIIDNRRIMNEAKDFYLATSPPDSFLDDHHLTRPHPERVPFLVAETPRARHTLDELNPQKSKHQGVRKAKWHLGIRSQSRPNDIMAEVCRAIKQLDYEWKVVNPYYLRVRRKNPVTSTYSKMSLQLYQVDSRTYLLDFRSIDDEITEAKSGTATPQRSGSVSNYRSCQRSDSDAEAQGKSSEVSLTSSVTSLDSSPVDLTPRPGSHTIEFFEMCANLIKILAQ
UniProt Q05397, whole entry, looked up: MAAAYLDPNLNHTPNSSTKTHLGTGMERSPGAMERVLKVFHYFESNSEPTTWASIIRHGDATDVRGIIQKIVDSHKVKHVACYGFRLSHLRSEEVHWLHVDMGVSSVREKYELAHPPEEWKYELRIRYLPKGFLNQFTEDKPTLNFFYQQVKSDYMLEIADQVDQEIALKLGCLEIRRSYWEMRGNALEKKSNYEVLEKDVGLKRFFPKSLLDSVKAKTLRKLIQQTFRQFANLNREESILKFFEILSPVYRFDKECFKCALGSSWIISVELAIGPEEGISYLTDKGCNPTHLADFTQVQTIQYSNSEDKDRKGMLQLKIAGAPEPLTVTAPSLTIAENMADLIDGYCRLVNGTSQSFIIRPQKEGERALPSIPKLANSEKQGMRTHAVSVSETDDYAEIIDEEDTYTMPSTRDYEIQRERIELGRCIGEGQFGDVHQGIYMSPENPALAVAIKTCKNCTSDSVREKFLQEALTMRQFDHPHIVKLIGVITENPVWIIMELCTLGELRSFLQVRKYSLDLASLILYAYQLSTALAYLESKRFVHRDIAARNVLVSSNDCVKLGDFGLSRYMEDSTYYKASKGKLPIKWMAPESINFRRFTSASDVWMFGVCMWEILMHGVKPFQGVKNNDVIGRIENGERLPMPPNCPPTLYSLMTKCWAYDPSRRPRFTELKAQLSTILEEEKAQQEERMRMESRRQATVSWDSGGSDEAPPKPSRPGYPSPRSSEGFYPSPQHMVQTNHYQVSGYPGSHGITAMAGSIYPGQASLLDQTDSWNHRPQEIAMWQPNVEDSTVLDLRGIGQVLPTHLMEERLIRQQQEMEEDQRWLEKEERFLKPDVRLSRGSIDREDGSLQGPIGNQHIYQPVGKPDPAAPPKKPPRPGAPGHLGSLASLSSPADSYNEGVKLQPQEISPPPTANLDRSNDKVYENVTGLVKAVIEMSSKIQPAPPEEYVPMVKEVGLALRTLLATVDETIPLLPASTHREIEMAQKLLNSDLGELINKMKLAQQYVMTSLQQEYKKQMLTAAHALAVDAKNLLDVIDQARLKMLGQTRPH

| SMILES | kinase-Nluc reporter destabilization hit call [1] | kinase-Nluc reporter destabilization hit call [2] | kinase-Nluc reporter destabilization hit call [3] | kinase-Nluc reporter destabilization hit call [4] | kinase-Nluc reporter destabilization hit call [5] | kinase-Nluc reporter destabilization hit call [6] | kinase-Nluc reporter destabilization hit call [7] | kinase-Nluc reporter destabilization hit call [8] | kinase-Nluc reporter destabilization hit call [9] | kinase-Nluc reporter destabilization hit call [10] | kinase-Nluc reporter destabilization hit call [11] | kinase-Nluc reporter destabilization hit call [12] | kinase-Nluc reporter destabilization hit call [13] | kinase-Nluc reporter destabilization hit call [14] | kinase-Nluc reporter destabilization hit call [15] | kinase-Nluc reporter destabilization hit call [16] | kinase-Nluc reporter destabilization hit call [17] | kinase-Nluc reporter destabilization hit call [18] | kinase-Nluc reporter destabilization hit call [19] | kinase-Nluc reporter destabilization hit call [20] |
| --- | --- | --- | --- | --- | --- | --- | --- | --- | --- | --- | --- | --- | --- | --- | --- | --- | --- | --- | --- | --- |
| CN1CC[C@@H](c2c(O)cc(O)c3c(=O)cc(-c4ccc(C(F)(F)F)cc4Cl)oc23)[C@@H]1CO [Voruciclib (hydrochloride)] (10 µM) | inactive: 0 | inactive: 0 | inactive: 0 | inactive: 0 | inactive: 0 | inactive: 0 | inactive: 0 | inactive: 0 | inactive: 0 | inactive: 0 | inactive: 0 | inactive: 0 | inactive: 0 | inactive: 0 | inactive: 0 | inactive: 0 | inactive: 0 | inactive: 0 | inactive: 0 | inactive: 0 |
| O=C(Nc1nc2ccc(NC(=O)C34CC5CC(CC(C5)C3)C4)cc2s1)c1ccccc1 (10 µM) | inactive: 0 | inactive: 0 | inactive: 0 | inactive: 0 | inactive: 0 | inactive: 0 | inactive: 0 | inactive: 0 | inactive: 0 | inactive: 0 | inactive: 0 | inactive: 0 | inactive: 0 | inactive: 0 | inactive: 0 | inactive: 0 | inactive: 0 | inactive: 0 | inactive: 0 | inactive: 0 |
| C=CC(=O)N1CCC[C@H](n2c(=O)n(-c3ccc(Oc4ccccc4)cc3)c3c(N)ncnc32)C1 [ONO-4059 (analog)] (10 µM) | inactive: 0 | inactive: 0 | inactive: 0 | inactive: 0 | inactive: 0 | inactive: 0 | inactive: 0 | inactive: 0 | inactive: 0 | inactive: 0 | inactive: 0 | inactive: 0 | inactive: 0 | inactive: 0 | inactive: 0 | inactive: 0 | inactive: 0 | inactive: 0 | inactive: 0 | inactive: 0 |
| C[C@H](Nc1ncnc2nc[nH]c12)c1cc2cccc(Cl)c2c(=O)n1-c1ccccc1 [Duvelisib] (10 µM) | inactive: 0 | inactive: 0 | inactive: 0 | inactive: 0 | inactive: 0 | inactive: 0 | inactive: 0 | inactive: 0 | inactive: 0 | inactive: 0 | inactive: 0 | inactive: 0 | inactive: 0 | inactive: 0 | inactive: 0 | inactive: 0 | inactive: 0 | inactive: 0 | inactive: 0 | inactive: 0 |
| C[C@@H]1CCNC(=O)c2cc3ccc(C(=O)Nc4nc5ccccc5n4CCCN(C)C)cc3n21 (10 µM) | inactive: 0 | inactive: 0 | inactive: 0 | inactive: 0 | inactive: 0 | inactive: 0 | inactive: 0 | inactive: 0 | inactive: 0 | inactive: 0 | inactive: 0 | inactive: 0 | inactive: 0 | inactive: 0 | inactive: 0 | inactive: 0 | inactive: 0 | inactive: 0 | inactive: 0 | inactive: 0 |
| Oc1cc(O)c2c(c1)OC1(c3ccc(O)c(O)c3)Oc3cc(O)c4c(c3C2C1O)OC(c1ccc(O)c(O)c1)C(O)C4 (stereo not given) [Procyanidin A1] (10 µM) | inactive: 0 | inactive: 0 | inactive: 0 | inactive: 0 | inactive: 0 | inactive: 0 | inactive: 0 | inactive: 0 | inactive: 0 | inactive: 0 | inactive: 0 | inactive: 0 | inactive: 0 | inactive: 0 | inactive: 0 | inactive: 0 | inactive: 0 | inactive: 0 | inactive: 0 | inactive: 0 |
| C=CC(=O)Nc1cccc(-c2cccc3cnc(Nc4ccc(N5CCN(CCO)CC5)c(F)c4F)nc23)c1 [Olafertinib] (2.5 µM) | inactive: 0 | inactive: 0 | inactive: 0 | inactive: 0 | inactive: 0 | inactive: 0 | inactive: 0 | inactive: 0 | inactive: 0 | inactive: 0 | inactive: 0 | inactive: 0 | inactive: 0 | inactive: 0 | inactive: 0 | inactive: 0 | inactive: 0 | inactive: 0 | inactive: 0 | inactive: 0 |
| C[C@@H]1CN(c2cc(-c3n[nH]c4ccc(OC5(C)CC5)cc34)ncn2)C[C@H](C)O1 (10 µM) | inactive: 0 | inactive: 0 | inactive: 0 | inactive: 0 | inactive: 0 | inactive: 0 | inactive: 0 | inactive: 0 | inactive: 0 | inactive: 0 | inactive: 0 | inactive: 0 | inactive: 0 | inactive: 0 | inactive: 0 | inactive: 0 | inactive: 0 | inactive: 0 | inactive: 0 | inactive: 0 |
| Cc1cnc(-c2ccc(-c3ccc(NC(=O)Nc4cccc(C(F)(F)F)c4)cc3F)c3c2C(=O)NC3)[nH]1 (10 µM) | inactive: 0 | inactive: 0 | inactive: 0 | inactive: 0 | inactive: 0 | inactive: 0 | inactive: 0 | inactive: 0 | inactive: 0 | inactive: 0 | inactive: 0 | inactive: 0 | inactive: 0 | inactive: 0 | inactive: 0 | inactive: 0 | active: 1 | inactive: 0 | inactive: 0 | inactive: 0 |
| O=c1cc(-c2cccc3c2Sc2ccccc2S3)oc(N2CCOCC2)c1 (10 µM) | inactive: 0 | inactive: 0 | inactive: 0 | inactive: 0 | inactive: 0 | inactive: 0 | inactive: 0 | inactive: 0 | inactive: 0 | inactive: 0 | inactive: 0 | inactive: 0 | inactive: 0 | inactive: 0 | inactive: 0 | inactive: 0 | inactive: 0 | inactive: 0 | inactive: 0 | inactive: 0 |
| O=C(Nc1nc2ccccc2[nH]1)c1cccc([N+](=O)[O-])c1 [IRAK-4 protein kinase inhibitor 2] (10 µM) | inactive: 0 | inactive: 0 | inactive: 0 | inactive: 0 | inactive: 0 | inactive: 0 | inactive: 0 | inactive: 0 | inactive: 0 | inactive: 0 | inactive: 0 | inactive: 0 | inactive: 0 | inactive: 0 | inactive: 0 | inactive: 0 | inactive: 0 | inactive: 0 | inactive: 0 | inactive: 0 |
| O=C1NC(=Nc2c(Cl)cccc2Cl)S/C1=C\c1ccc2nccnc2c1 (2.5 µM) | inactive: 0 | inactive: 0 | inactive: 0 | inactive: 0 | inactive: 0 | active: 1 | inactive: 0 | inactive: 0 | inactive: 0 | inactive: 0 | inactive: 0 | inactive: 0 | inactive: 0 | inactive: 0 | inactive: 0 | inactive: 0 | inactive: 0 | inactive: 0 | inactive: 0 | inactive: 0 |

As entered above:
kinase-Nluc reporter destabilization hit call [3] with O=C(Nc1nc2ccccc2[nH]1)c1cccc([N+](=O)[O-])c1 [IRAK-4 protein kinase inhibitor 2] (10 µM) is entered as inactive: 0
kinase-Nluc reporter destabilization hit call [11] with Cc1cnc(-c2ccc(-c3ccc(NC(=O)Nc4cccc(C(F)(F)F)c4)cc3F)c3c2C(=O)NC3)[nH]1 (10 µM) is entered as inactive: 0
